These are yes or no findings as the source states them, for the method shown. Binding seen in cells or lysates may run through a third protein. Some binding calls cover weakened binding; strength is not graded here.
Molecular target: TPNI-CUTie (UniProt P19429)
Assay: co-IP; RIPA lysates of ARVM or NRVM infected with adenovirus carrying the targeted CUTie chimera; 2-4 h at 4 °C with agarose beads coated with anti-GFP (GFP-Trap_A); five washes with ice-cold RIPA buffer; western blot of bound proteins

binding: binds
Substance: Troponin T-C (from UniProt P50753 1-299)

From article PMC5411486
